Measurements reported in PubChem BioAssay AID1671195 (Yale University, 2021).
In all, the deposit lists about 22,000 reagents; shown is a part drawn at random. Over the whole deposit, about 1,510 (6.9%) are marked active. 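Active includes knockdowns raising or lowering LDL uptake; positive z-scores mean more uptake, negative mean less.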 Reagents against one gene are numbered here.

Aim: 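Knockdowns that increase or decrease uptake of fluorescent LDL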 (primary screen)
Cell system: human Huh7 hepatoma cells
Reagent: siRNA pool against human genes, 18 nM
Duration: about 2 to 2.5 days of knockdown, then 8 h LDL uptake
Challenge: DiI-labelled LDL at 30 µg/ml for 8 h, in lipoprotein-deficient serum medium
Measurement: 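Per-cell DiI-LDL intensity by automated imaging; well means scaled to the plate median and given as a robust z-score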
Scale: robust z-score: higher = more LDL uptake after knockdown
Hit rule: 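Active when two or more replicates show a robust z-score above 2 or below -2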

target	reagent	robust z-score, replicate 1	robust z-score, replicate 2	robust z-score, replicate 3	activity call
SORDL (retired record)	1	-0.972	-1.56	-1.52	inactive
GCGR (glucagon receptor)	1	-0.776	0.877	0.259	inactive
KRTAP1-3 (keratin associated protein 1-3)	1	-0.681	-0.755	-0.339	inactive
OLFML2B (olfactomedin like 2B)	1	-0.342	0.161	-0.131	inactive
MIR22HG (MIR22 host gene)	1	-0.0246	0.259	0.46	inactive
ACSL1 (acyl-CoA synthetase long chain family member 1)	1	1.9	0.727	1.35	inactive
SIVA1 (SIVA1 apoptosis inducing factor)	1	-0.497	0.301	-0.772	inactive
PRKCH (protein kinase C eta)	1	-0.125	-1.63	-0.606	inactive
KLHL23 (kelch like family member 23)	1	-1	-1.6	-0.805	inactive
CTXN1 (cortexin 1)	1	-0.202	1.04	-0.367	inactive
TFAP2C (transcription factor AP-2 gamma)	1	-0.731	-1.01	-0.692	inactive
ZDBF2 (zinc finger DBF-type containing 2)	1	-0.716	-1.27	-1.2	inactive
SKIC3 (SKI3 subunit of superkiller complex)	1	0.00888	0.18	-1.02	inactive
ARMCX3 (armadillo repeat containing X-linked 3)	1	-1.45	-0.888	-0.211	inactive
LOC440537 (retired record)	1	0.469	0.532	-0.0613	inactive
HOMER2 (homer scaffold protein 2)	1	-0.124	0.188	-0.849	inactive
DTNA (dystrobrevin alpha)	1	1.54	2.15	0.793	inactive
GMPR (guanosine monophosphate reductase)	1	-0.603	0.926	0.0108	inactive
TNFSF14 (TNF superfamily member 14)	1	0.118	3.11	0.986	inactive
SRSF11 (serine and arginine rich splicing factor 11)	1	-1.55	-1.13	-1.87	inactive
URGCP (upregulator of cell proliferation)	1	0.985	0.447	0.629	inactive
FGA (fibrinogen alpha chain)	1	-0.163	-0.979	0.587	inactive
ZFHX3 (zinc finger homeobox 3)	1	1.82	1.07	1.27	inactive
ZFHX3 (zinc finger homeobox 3)	2	0.171	0.138	0.447	inactive
SOX5 (SRY-box transcription factor 5)	1	1.56	1.56	0.744	inactive
UBXN11 (UBX domain protein 11)	1	-2.17	-1.21	-2.21	active
TRPV5	1	-0.62	-0.934	-0.737	inactive
AK9 (adenylate kinase 9)	1	1.82	1.11	1.59	inactive
AK9 (adenylate kinase 9)	2	0.601	0.325	0.0288	inactive
AK9 (adenylate kinase 9)	3	-0.327	-0.212	0.0787	inactive

4 of these entries, set out differently.
{"target": "KLHL23 (kelch like family member 23)", "reagent": 1, "robust z-score, replicate 1": -1, "robust z-score, replicate 2": -1.6, "robust z-score, replicate 3": -0.805, "activity call": "inactive"}
{"target": "CTXN1 (cortexin 1)", "reagent": 1, "robust z-score, replicate 1": -0.202, "robust z-score, replicate 2": 1.04, "robust z-score, replicate 3": -0.367, "activity call": "inactive"}
{"target": "TFAP2C (transcription factor AP-2 gamma)", "reagent": 1, "robust z-score, replicate 1": -0.731, "robust z-score, replicate 2": -1.01, "robust z-score, replicate 3": -0.692, "activity call": "inactive"}
{"target": "ZDBF2 (zinc finger DBF-type containing 2)", "reagent": 1, "robust z-score, replicate 1": -0.716, "robust z-score, replicate 2": -1.27, "robust z-score, replicate 3": -1.2, "activity call": "inactive"}
